From the supplement of paper PMC12067093, “Discovery and optimisation of a covalent ligand for TRIM25 and its application to targeted protein ubiquitination” (Chemical Science, 2025)
The list shows a part of the results.

By UniProt entry, the sequences of proteins in these tests, tags left out. Where a name states a change or a piece, a line headed by the entry shows the natural chain unless it says otherwise.
UniProt Q92879: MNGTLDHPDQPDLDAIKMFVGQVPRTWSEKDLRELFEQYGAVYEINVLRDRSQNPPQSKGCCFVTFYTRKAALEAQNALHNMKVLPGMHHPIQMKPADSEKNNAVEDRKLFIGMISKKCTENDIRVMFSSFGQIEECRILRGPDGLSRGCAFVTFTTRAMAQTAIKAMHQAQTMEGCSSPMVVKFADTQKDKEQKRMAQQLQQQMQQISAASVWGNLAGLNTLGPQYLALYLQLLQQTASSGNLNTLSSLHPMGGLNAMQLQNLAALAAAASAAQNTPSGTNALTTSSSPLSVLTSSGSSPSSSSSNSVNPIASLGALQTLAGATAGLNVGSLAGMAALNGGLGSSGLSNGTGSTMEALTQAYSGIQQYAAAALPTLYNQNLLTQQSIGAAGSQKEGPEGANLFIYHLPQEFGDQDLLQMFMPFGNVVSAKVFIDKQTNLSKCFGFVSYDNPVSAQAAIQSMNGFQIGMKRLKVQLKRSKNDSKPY
UniProt Q14004, whole entry, looked up: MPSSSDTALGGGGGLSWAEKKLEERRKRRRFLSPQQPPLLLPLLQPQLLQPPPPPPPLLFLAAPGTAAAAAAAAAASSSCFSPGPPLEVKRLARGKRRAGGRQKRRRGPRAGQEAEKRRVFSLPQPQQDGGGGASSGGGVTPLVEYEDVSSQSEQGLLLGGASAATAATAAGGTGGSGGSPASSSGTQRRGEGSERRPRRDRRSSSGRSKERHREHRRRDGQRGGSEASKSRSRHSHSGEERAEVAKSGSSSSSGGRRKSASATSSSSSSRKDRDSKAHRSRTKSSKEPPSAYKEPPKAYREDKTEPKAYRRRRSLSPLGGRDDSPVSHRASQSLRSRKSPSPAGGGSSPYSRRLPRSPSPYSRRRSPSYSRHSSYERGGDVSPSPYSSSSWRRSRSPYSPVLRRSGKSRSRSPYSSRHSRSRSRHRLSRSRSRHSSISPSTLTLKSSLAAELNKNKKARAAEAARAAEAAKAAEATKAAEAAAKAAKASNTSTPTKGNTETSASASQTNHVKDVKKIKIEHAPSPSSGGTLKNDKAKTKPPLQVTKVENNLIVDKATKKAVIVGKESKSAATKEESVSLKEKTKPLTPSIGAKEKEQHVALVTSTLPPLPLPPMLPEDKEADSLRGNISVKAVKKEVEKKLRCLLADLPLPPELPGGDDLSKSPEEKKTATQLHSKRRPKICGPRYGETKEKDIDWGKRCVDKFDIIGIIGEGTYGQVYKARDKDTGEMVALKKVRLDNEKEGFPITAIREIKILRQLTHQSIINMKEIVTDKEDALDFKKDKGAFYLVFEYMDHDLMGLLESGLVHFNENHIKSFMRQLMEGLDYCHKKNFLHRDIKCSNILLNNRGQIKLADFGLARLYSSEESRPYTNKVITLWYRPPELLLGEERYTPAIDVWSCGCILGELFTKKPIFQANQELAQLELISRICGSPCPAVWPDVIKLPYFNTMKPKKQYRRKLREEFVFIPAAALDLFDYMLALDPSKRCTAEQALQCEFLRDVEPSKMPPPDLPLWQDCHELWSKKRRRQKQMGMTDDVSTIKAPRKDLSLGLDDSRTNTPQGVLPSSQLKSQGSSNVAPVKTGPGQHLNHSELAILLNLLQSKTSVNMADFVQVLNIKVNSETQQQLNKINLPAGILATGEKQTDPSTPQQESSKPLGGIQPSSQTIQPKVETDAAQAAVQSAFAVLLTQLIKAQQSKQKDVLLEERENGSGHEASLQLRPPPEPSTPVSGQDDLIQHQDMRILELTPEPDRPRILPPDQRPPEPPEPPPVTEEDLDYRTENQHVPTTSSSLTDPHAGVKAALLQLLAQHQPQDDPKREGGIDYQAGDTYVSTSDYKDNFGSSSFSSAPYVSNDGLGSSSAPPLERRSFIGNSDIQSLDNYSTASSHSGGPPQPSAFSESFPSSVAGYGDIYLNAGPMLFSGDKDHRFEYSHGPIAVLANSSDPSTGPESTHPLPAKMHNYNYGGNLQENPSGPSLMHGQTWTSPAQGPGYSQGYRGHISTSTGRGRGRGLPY
UniProt P40227, whole entry, looked up: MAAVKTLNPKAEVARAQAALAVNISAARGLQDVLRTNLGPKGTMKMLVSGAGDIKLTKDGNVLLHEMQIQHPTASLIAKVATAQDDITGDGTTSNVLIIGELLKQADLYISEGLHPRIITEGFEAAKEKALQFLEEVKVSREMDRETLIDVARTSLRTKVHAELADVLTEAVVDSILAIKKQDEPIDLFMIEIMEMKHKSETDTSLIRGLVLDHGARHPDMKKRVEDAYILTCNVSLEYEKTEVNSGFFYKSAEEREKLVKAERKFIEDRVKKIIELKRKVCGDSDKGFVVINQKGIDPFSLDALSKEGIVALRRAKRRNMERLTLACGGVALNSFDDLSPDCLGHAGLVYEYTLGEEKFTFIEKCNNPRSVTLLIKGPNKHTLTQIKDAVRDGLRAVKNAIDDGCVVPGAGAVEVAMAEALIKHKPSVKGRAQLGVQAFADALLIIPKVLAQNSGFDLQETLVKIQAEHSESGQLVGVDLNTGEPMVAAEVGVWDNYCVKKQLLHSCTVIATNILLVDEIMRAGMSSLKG
UniProt P30260, whole entry, looked up: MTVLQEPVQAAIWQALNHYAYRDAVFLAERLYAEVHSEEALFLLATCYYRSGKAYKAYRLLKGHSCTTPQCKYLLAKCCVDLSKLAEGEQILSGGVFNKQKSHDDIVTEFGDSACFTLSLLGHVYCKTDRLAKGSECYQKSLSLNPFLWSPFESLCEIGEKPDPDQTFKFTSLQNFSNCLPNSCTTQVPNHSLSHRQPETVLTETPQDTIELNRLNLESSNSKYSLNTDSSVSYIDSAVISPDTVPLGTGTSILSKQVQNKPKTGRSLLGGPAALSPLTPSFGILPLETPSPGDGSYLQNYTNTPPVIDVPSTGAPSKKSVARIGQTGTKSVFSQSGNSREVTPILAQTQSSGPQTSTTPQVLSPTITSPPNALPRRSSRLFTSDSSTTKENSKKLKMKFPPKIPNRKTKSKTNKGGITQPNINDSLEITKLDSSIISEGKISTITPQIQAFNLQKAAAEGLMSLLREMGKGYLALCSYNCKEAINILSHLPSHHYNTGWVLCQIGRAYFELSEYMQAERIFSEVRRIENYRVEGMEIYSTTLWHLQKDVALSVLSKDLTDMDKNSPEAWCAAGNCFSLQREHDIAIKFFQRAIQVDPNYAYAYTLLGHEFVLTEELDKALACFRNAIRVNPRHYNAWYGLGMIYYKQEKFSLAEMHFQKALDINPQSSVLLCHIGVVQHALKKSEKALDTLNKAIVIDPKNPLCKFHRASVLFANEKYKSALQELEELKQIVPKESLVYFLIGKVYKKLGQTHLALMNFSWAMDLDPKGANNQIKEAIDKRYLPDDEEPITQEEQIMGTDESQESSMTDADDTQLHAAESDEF
UniProt P50990: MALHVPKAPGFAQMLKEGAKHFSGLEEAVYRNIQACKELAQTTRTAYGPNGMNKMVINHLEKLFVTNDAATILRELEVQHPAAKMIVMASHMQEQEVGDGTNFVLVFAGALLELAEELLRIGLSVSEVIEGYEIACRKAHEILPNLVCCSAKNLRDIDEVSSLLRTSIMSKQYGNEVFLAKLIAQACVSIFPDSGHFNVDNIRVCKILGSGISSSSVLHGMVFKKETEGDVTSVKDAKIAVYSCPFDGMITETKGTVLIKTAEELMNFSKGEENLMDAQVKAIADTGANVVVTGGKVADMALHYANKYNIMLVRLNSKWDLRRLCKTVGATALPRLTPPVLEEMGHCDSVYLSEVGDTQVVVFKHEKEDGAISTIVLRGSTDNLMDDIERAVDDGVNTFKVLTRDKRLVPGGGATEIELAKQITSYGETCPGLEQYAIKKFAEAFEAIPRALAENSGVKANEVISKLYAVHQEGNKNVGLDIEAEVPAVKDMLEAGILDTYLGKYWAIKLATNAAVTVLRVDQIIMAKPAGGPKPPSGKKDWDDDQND
UniProt Q9BYV8: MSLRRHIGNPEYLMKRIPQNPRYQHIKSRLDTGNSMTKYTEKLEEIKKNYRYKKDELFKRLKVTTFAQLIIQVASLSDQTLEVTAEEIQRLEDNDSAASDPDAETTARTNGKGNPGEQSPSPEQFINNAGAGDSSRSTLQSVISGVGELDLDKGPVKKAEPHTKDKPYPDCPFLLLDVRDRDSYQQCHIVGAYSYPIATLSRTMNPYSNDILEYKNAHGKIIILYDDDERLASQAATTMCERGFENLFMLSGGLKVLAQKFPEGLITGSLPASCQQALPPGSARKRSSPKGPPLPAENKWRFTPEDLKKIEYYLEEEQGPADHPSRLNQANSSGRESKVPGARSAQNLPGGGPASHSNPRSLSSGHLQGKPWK
UniProt O95319: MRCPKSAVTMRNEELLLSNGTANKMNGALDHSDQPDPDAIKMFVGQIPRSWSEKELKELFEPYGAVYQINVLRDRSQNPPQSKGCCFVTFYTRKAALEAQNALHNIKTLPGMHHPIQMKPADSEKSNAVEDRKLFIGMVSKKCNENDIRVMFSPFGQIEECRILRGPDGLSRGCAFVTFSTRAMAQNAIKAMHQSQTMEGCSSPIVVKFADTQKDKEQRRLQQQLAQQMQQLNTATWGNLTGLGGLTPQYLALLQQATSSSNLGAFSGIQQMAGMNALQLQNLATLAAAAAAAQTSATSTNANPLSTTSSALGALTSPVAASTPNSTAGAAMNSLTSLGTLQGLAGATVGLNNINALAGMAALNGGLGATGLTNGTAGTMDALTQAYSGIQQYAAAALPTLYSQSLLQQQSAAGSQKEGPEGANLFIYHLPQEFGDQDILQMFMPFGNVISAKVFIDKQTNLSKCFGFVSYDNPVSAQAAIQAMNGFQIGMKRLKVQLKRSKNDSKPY
UniProt P13987: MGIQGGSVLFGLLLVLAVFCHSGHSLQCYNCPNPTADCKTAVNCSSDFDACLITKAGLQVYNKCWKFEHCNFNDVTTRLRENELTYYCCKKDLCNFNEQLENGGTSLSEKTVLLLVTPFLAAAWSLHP
UniProt P49336: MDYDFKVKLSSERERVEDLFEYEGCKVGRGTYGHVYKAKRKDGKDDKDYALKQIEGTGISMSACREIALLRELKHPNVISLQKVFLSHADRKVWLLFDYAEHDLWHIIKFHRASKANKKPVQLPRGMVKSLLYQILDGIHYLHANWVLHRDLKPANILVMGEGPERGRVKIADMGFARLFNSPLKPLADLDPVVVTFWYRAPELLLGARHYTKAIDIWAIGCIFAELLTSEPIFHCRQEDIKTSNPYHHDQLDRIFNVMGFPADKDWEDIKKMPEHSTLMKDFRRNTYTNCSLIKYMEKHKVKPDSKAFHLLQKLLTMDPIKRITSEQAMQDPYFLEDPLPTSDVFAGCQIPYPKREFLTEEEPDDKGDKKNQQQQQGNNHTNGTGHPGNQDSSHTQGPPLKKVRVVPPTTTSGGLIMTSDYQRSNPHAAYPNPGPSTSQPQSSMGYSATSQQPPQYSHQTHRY
UniProt P08962, whole entry: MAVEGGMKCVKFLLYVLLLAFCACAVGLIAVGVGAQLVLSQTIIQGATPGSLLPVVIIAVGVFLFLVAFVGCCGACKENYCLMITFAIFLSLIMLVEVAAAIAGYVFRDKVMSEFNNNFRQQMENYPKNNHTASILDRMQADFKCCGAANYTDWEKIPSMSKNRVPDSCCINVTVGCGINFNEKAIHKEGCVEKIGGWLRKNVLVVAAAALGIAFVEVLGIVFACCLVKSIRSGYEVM

Compound: CC1Cc2ccccc2N1C(=O)C1CCCN(C1)C(=O)CCl (mixture of isomers) [TRIM25 ligand 11 (diastereomer mixture)]
Experiment: probe-labelled cysteine peptide fold change vs DMSO (competition) (log2 fold change); higher = less target engagement (more negative = stronger competition)
Conditions: THP-1, incubation time: 4 h
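Also: competitive chemoproteomic profiling in live THP-1 cells with an iodoacetamide desthiobiotin (IA-DTB) probe, comparing probe-labelled peptide intensities in compound-treated cells against DMSO-treated controls.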

Row | Target | probe-labelled cysteine peptide fold change (10 µM) | probe-labelled cysteine peptide fold change (50 µM)
1 | CELF1_Q92879_119_CTENDIR (UniProt Q92879) | 0.0713 | 0.0983
2 | CD300LF_Q8TDQ1_264_EDISYASLTLGAEDQEPTYCNMGHLSSHLPGR (UniProt Q8TDQ1) | 0.0559 | 0.0308
3 | CDC16_Q13042_46_EEPQDIYWLAQCLYLTAQYHR (UniProt Q13042) | 0.246 | -0.0564
4 | CD2BP2_O95400_234_GLGCQTLGPHNPTPPPSLDMFAEELAEEELETPTPTQR (UniProt O95400) | 0.287 | -0.217
5 | CCT7_Q99832_345_CQVFEETQIGGER (UniProt Q99832) | -0.0141 | 0.0317
6 | CDK13_Q14004_840_CSNILLNNR (UniProt Q14004) | 0.0465 | 0.0456
7 | CCT4_P50991_252_IGLIQFCLSAPK (UniProt P50991) | -0.143 | -0.124
8 | CDC20_Q12834_403_IWNVCSGACLSAVDAHSQVCSILWSPHYK (UniProt Q12834) | 0.187 | 0.244
9 | CEP192_Q8TEP8_396_QGAECPHQNK (UniProt Q8TEP8) | -0.0896 | -0.188
10 | CCT6A_P40227_282_VCGDSDK (UniProt P40227) | 0.00986 | -0.0237
11 | CD81_P60033_175_NNLCPSGSNIISNLFK (UniProt P60033) | 0.0204 | -0.0136
12 | CEP128_Q6ZU80_839_EIDAACK (UniProt Q6ZU80) | 0.0414 | 0.0453
13 | CEP170_Q5SW79_776_CREETFKQESQPPEK (UniProt Q5SW79) | -0.225 | -0.266
14 | CDC27_P30260_179+184_FTSLQNFSNCLPNSCTTQVPNHSLSHR (UniProt P30260) | -0.0465 | -0.046
15 | CCT7_Q99832_511_INALTAASEAACLIVSVDETIK (UniProt Q99832) | 0.237 | 0.0328
16 | CCT7_Q99832_326_TMMACGGSIQTSVNALSADVLGR (UniProt Q99832) | -0.0121 | -0.141
17 | CCT8_P50990_149_KAHEILPNLVCCSAK (UniProt P50990) | -0.0904 | -0.122
18 | CCT5_P48643_429_VVYGGGAAEISCALAVSQEADK (UniProt P48643) | 0.0942 | 0.0599
19 | CENPF_P49454_1291_YISGPHELSTSQNDNAHLQCSLQTTMNK (UniProt P49454) | -0.0647 | -0.249
20 | CES1_P23141_116_LSEDCLYLNIYTPADLTK (UniProt P23141) | 0.136 | 0.243
21 | CDC27_P30260_137_GSECYQK (UniProt P30260) | -0.0786 | -0.0611

Row | Target | probe-labelled cysteine peptide fold change (10 µM) | probe-labelled cysteine peptide fold change (50 µM)
22 | CEP120_Q8N960_762_AKEDCIHQVELER (UniProt Q8N960) | -0.0766 | 0.116
23 | CCT7_Q99832_29_EGTDSSQGIPQLVSNISACQVIAEAVR (UniProt Q99832) | 0.000628 | -0.0225
24 | CENPC_Q03188_291_HAATAPPHSCPPDDTK (UniProt Q03188) | -0.109 | -0.114
25 | CENPM_Q9NSP4_98_VCFLATGAGR (UniProt Q9NSP4) | -0.0713 | 0.1
26 | CDK5RAP2_Q96SN8_1811_VSLPEDGQCPLHCEQIGEMK (UniProt Q96SN8) | 0.00278 | 0.0961
27 | CEP152_O94986_1019_ETELQTCLDQSR (UniProt O94986) | -0.00967 | 0.148
28 | CEP76_Q8TAP6_156_SKPVPCACEPDFHDGFLLEVHR (UniProt Q8TAP6) | 0.0132 | 0.0437
29 | CENPF_P49454_621_TLFSCWK (UniProt P49454) | 0.115 | 0.119
30 | CDC42BPB_Q9Y5S2_1328_GCQLMATATLKR (UniProt Q9Y5S2) | 0.00823 | -0.0497
31 | CEP152_O94986_732_EVTAVQECYLEVCR (UniProt O94986) | 0.0812 | 0.291
32 | CEP97_Q8IW35_34_LGPNLPCEADIHTLILDK (UniProt Q8IW35) | 0.0724 | 0.148
33 | CEP41_Q9BYV8_240_IIILYDDDERLASQAATTMCER (UniProt Q9BYV8) | -0.212 | -0.185
34 | CDKN2C_P42773_141_NHKGDTACDLAR (UniProt P42773) | -0.104 | -0.0111
35 | CD151_P48509_192_TVVALCGQR (UniProt P48509) | 0.0259 | 0.122
36 | CELF2_O95319_143_CNENDIR (UniProt O95319) | -0.0913 | 0.00912
37 | CEP350_Q5VT06_3083_DRVDHILVQELHEEEAQWVNYDEDELCVK (UniProt Q5VT06) | 0.0465 | -0.0413
38 | CDK4_P11802_215_RKPLFCGNSEADQLGK (UniProt P11802) | -0.0231 | 0.0621
39 | CD46_P15529_162_VLCTPPPK (UniProt P15529) | 0.0462 | -0.17
40 | CEP192_Q8TEP8_882_TCSIDNK (UniProt Q8TEP8) | -0.0825 | -0.213
41 | CCT5_P48643_253_IAILTCPFEPPKPK (UniProt P48643) | -0.0215 | 0.0472
42 | CENPF_P49454_373_LTEDLSCQR (UniProt P49454) | -0.0525 | -0.0826

Row | Target | probe-labelled cysteine peptide fold change (10 µM) | probe-labelled cysteine peptide fold change (50 µM)
43 | CDC123_O75794_170_WCELIPGAEFR (UniProt O75794) | -0.0198 | -0.0653
44 | CCT8_P50990_148_KAHEILPNLVCCSAK (UniProt P50990) | -0.218 | -0.2
45 | CCT7_Q99832_450_QLCDNAGFDATNILNK (UniProt Q99832) | 0.0363 | 0.0425
46 | CDKN2AIP_Q9NXV6_24_CDGETDK (UniProt Q9NXV6) | 0.0102 | -0.0653
47 | CDC45_O75419_31_VLLFVASDVDALCACK (UniProt O75419) | 0.219 | 0.304
48 | CDC37_Q16543_64_KVAECQR (UniProt Q16543) | -0.149 | 0.1
49 | CDCA4_Q9BXL8_10_CVGHEEDVEGALAGLK (UniProt Q9BXL8) | -0.187 | -0.132
50 | CDAN1_Q8IWY9_1017_ACEHHAPLPSHLISEIK (UniProt Q8IWY9) | 0.018 | 0.0953
51 | CEPT1_Q9Y6K0_11+30_CGDSHPESPVGFGHMSTTGCVLNK (UniProt Q9Y6K0) | 0.118 | -0.555
52 | CELF1_Q92879_137_VMFSSFGQIEECR (UniProt Q92879) | 0.0585 | 0.0849
53 | CDKAL1_Q5VV42_109_ITENASDADLWLLNSCTVK (UniProt Q5VV42) | 0.178 | 0.141
54 | CD40_P25942_186_TDVVCGPQDR (UniProt P25942) | 0.143 | 0.244
55 | CD70_P32970_133_HHPTTLAVGICSPASR (UniProt P32970) | -0.0288 | -0.285
56 | CCT6A_P40227_233_KRVEDAYILTCNVSLEYEK (UniProt P40227) | -0.191 | -0.0734
57 | CD38_P28907_82_HVDCQSVWDAFK (UniProt P28907) | 0.0635 | 0.101
58 | CEP250_Q9BV73_2008_SLEASTATLQASLDACQAHSR (UniProt Q9BV73) | 0.121 | -0.0252
59 | CEP55_Q53EZ4_462_DLLVHVEYCSK (UniProt Q53EZ4) | 0.0267 | 0.0517
60 | CEP41_Q9BYV8_171_DKPYPDCPFLLLDVR (UniProt Q9BYV8) | 0.0823 | 0.155
61 | CEP192_Q8TEP8_2335_CSPISGLLESHGIQK (UniProt Q8TEP8) | -0.00846 | 0.0182
62 | CDAN1_Q8IWY9_400_LLCFSPALQGR (UniProt Q8IWY9) | 0.0602 | 0.285
63 | CDS1_Q92903_10_GSCPGPR (UniProt Q92903) | -0.507 | 0.241

Row | Target | probe-labelled cysteine peptide fold change (10 µM) | probe-labelled cysteine peptide fold change (50 µM)
64 | CENPF_P49454_1264_DCEIDAEEK (UniProt P49454) | -0.135 | -0.205
65 | CD59_P13987_70_FEHCNFNDVTTR (UniProt P13987) | -0.0723 | 0.0594
66 | CDK8_P49336_64_QIEGTGISMSACR (UniProt P49336) | -0.025 | -0.0711
67 | CENPC_Q03188_472_NMEEHEEMGNDCVSK (UniProt Q03188) | 0.194 | 0.211
68 | CELF1_Q92879_177_AMHQAQTMEGCSSPMVVK (UniProt Q92879) | -0.222 | -0.255
69 | CENPU_Q71F23_239_AIGSDTSDIVHIWCPEGMK (UniProt Q71F23) | 0.147 | -0.127
70 | CDC27_P30260_184_FTSLQNFSNCLPNSCTTQVPNHSLSHR (UniProt P30260) | -0.0579 | -0.387
71 | CENPF_P49454_2961_YCSLLISHEK (UniProt P49454) | -0.0919 | -0.0693
72 | CEP350_Q5VT06_3083_VDHILVQELHEEEAQWVNYDEDELCVK (UniProt Q5VT06) | 0.00893 | -0.0239
73 | CEP250_Q9BV73_1740_EVECQQEHIHELQELK (UniProt Q9BV73) | -0.267 | -0.154
74 | CD63_P08962_177_NRVPDSCCINVTVGCGINFNEK (UniProt P08962) | 0.13 | -0.00794
75 | CEP250_Q9BV73_630_VGLNQQLLQLEEENQSVCSR (UniProt Q9BV73) | -0.268 | -0.047
76 | CELF2_O95319_85_GCCFVTFYTR (UniProt O95319) | -0.134 | -0.0412
77 | CDK14_O94921_402_LLQCSPK (UniProt O94921) | -0.179 | 0.0408
78 | CEP350_Q5VT06_211_FLNDRPAIDALQNSECLIR (UniProt Q5VT06) | -0.138 | -0.243
79 | CCT7_Q99832_310_LPIGDVATQYFADRDMFCAGR (UniProt Q99832) | -0.261 | -0.14
80 | CD3EAP_O15446_150_FCAFGGNPPVTGPR (UniProt O15446) | -0.187 | -0.273
81 | CCT8_P50990_430_QITSYGETCPGLEQYAIK (UniProt P50990) | -0.174 | -0.123
82 | CDCA2_Q69YH5_315_SPATPACR (UniProt Q69YH5) | 0.112 | -0.199
83 | CDK13_Q14004_644_CLLADLPLPPELPGGDDLSK (UniProt Q14004) | 0.35 | -0.317
84 | CD68_P34810_207_VQGSCEGAHPHLLLSFPYGHLSFGFMQDLQQK (UniProt P34810) | 0.0569 | -0.136

As entered above.
In probe-labelled cysteine peptide fold change (10 µM), CDK8_P49336_64_QIEGTGISMSACR (UniProt P49336) has the entry -0.025
In probe-labelled cysteine peptide fold change (10 µM), CELF1_Q92879_177_AMHQAQTMEGCSSPMVVK (UniProt Q92879) has the entry -0.222
In probe-labelled cysteine peptide fold change (50 µM), CD63_P08962_177_NRVPDSCCINVTVGCGINFNEK (UniProt P08962) has the entry -0.00794
In probe-labelled cysteine peptide fold change (10 µM), CEP350_Q5VT06_211_FLNDRPAIDALQNSECLIR (UniProt Q5VT06) has the entry -0.138
In probe-labelled cysteine peptide fold change (50 µM), CCT7_Q99832_310_LPIGDVATQYFADRDMFCAGR (UniProt Q99832) has the entry -0.14
In probe-labelled cysteine peptide fold change (10 µM), CDC27_P30260_184_FTSLQNFSNCLPNSCTTQVPNHSLSHR (UniProt P30260) has the entry -0.0579
